This note sets out measurements from publication PMC12667445, “Targeting RBM10‐Repressed RORB Activity in Liquid Condensates Inhibits Lysosomal Biogenesis and Neuroblastoma Progression via Affecting NF‐κB Signaling” (Advanced Science, 2025).

Chains of the proteins cited; added tags and fusions are not shown.
UniProt P98175: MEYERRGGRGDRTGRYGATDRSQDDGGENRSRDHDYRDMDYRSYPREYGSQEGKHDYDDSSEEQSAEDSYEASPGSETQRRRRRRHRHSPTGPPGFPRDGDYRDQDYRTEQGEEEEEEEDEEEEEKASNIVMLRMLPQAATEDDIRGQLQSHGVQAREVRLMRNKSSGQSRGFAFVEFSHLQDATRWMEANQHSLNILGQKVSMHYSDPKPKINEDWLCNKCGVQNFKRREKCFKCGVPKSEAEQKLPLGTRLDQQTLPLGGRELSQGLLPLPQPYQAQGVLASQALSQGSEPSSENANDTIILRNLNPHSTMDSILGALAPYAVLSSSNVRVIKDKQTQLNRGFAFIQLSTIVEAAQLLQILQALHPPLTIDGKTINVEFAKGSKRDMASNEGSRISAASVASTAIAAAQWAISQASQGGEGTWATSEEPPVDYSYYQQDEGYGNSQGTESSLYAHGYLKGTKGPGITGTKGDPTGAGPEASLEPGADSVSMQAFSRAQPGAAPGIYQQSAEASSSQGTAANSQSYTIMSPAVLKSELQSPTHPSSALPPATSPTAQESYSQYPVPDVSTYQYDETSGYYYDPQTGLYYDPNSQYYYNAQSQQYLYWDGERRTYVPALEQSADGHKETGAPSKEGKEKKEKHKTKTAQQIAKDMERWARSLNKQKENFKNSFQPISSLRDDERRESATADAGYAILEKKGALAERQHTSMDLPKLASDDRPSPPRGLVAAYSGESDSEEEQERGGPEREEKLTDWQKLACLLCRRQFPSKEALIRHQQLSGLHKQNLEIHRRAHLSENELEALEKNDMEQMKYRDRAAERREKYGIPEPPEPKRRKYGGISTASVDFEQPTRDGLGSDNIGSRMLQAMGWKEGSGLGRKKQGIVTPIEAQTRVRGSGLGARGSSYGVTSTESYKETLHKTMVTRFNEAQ

For one experiment, the target named is T1, Flag‐tagged RORB (UniProt Q92753).
T1 sequence: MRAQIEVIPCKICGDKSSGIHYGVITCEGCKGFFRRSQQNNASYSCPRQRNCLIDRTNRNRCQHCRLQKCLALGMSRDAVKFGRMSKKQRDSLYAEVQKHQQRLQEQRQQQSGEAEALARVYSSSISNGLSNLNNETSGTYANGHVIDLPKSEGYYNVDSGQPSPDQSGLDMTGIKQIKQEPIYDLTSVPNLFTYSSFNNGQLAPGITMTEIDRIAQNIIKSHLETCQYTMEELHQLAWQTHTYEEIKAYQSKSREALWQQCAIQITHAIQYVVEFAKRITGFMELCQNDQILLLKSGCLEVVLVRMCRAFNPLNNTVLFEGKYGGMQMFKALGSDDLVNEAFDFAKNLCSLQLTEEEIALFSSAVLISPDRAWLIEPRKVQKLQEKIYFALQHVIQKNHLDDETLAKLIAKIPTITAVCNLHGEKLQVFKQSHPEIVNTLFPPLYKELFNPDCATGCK
Put plainly: co-IP; SK-N-BE(2) cells expressing Flag-tagged RORB and Myc-tagged RBM10.

The next experiment has as its target T2, RORB, BiFC construct (UniProt Q92753).
T2 sequence: T1 sequence
The experiment in a line: split reporter; BiFC in SK-N-BE(2) cells; fluorescence within the nucleus.

Experiment [1] has as its target T3, RAR‐related orphan receptor B (RORB), endogenous (human (endogenous in SH-SY5Y, SK-N-AS, SK-N-BE(2), IMR-32)) (UniProt Q92753).
T3 sequence: T1 sequence
Put plainly: co-IP; endogenous proteins in SH-SY5Y and SK-N-AS cells; western blot; IgG as negative control. On the technique in general: In western blotting, separated proteins are transferred to a membrane and probed.

These are yes or no findings as the source states them, for the method shown. Binding seen in cells or lysates may run through a third protein. Some entries that bind do so weakly or less than the wild type. For part of these data: Tags and fused reporters may be left off the sequences shown.

Take “Myc‐tagged RBM10 (from UniProt P98175 1-930)”: in the experiment with Flag‐tagged RORB, the binding result is listed as “binds”.

In the case of “RBM10, BiFC construct (from UniProt P98175 1-930)”, in the experiment with RORB, BiFC construct, the binding entry is on record as “binds”.

For “RNA binding motif protein 10 (RBM10), endogenous (from UniProt P98175 1-930)”, in experiment [1], the binding entry is listed as “binds”.
